Article PMC8141524
These are yes or no findings as the source states them, for the method shown. Some results given as binding are weak or reduced against the parent protein; the word gives no strength. Sequences can lack the tags named with a protein.

Sequences of proteins named here, by UniProt entry; tags and fusion partners are left off. Residues count along the entry.
UniProt Q68FF0, residues 144-261: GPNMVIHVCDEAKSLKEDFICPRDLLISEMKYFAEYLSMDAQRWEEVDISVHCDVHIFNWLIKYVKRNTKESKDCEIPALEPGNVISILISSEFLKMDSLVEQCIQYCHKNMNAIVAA

Biological target: T1, GST-SMRT(1383-1467), residues 1383-1467 of mouse SMRT (mouse) (UniProt Q9WU42)
T1 sequence: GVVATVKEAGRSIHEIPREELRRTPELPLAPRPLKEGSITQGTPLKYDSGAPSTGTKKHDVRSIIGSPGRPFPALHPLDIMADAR
Experiment: pull-down; 200 nM His6-tagged BTB domain with equimolar GST-tagged protein, 50 mM HEPES pH 8.0, 150 mM NaCl, 0.1% IGEPAL-CA630, 2 mM EDTA, 4 °C; glutathione sepharose 4B; immunoblot anti-His; both purified

## His6-SANBR(BTB), the predicted BTB domain of SANBR (amino acids 144-261) (from UniProt Q68FF0-1 144-261) (domain or fragment)
  binding: binds
